The assay deals with human SOD1 G93A mutant protein, transgene product (human) (UniProt P00441). Kind of assay: co-IP; spinal cord lysates (PBS, protease inhibitors, sonicated) of WT, hHSJ1a, G93A and DBLE male mice at 120 days; reciprocal precipitation with anti-SOD1 (C4F6) or anti-HSJ1 (S653) on protein-G Dynabeads, control IgG; Western blot for HSJ1 and SOD1. (In general: Immunoblotting shows a protein as a band on a membrane.)

Sequences of proteins named here, by UniProt entry; tags and fusion partners are left off. A change or cut given only in a name is not applied to a line headed by its entry. A line that says so, or that is headed by a name, gives the form on record, which may keep a tag or linker.
UniProt P00441: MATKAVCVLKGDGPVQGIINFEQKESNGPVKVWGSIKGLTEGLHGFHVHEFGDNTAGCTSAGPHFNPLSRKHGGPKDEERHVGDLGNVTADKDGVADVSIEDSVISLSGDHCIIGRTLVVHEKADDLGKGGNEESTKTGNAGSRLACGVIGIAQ
human SOD1 G93A mutant protein, transgene product (P00441, form named): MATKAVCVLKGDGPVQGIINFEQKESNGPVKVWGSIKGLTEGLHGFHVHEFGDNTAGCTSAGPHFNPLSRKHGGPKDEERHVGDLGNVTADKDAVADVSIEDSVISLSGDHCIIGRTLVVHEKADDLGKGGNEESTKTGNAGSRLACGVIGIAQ
UniProt Q9QYI5: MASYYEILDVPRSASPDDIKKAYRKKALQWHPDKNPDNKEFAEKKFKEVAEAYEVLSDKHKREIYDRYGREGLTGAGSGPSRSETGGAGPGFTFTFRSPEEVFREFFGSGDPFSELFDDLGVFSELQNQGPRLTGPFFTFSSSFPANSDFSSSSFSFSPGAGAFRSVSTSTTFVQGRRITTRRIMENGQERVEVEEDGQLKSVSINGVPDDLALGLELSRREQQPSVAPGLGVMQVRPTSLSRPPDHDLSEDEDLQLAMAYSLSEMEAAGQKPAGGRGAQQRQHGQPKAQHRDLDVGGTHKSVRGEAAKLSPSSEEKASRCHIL

No constants are given. Whether binding was seen depends on the method and setting. In cells and extracts the contact can be indirect.

For the substance “endogenous mouse HSJ1a (from UniProt Q9QYI5)”, the binding result was “no binding”.

The values are drawn from article PMC3758296.
